In the assay the test system is P388 leukemia ip, CD2F1 mice, survival T/C. Put plainly: NCI In Vivo Anticancer Drug Screen. Data for tumor model P388 Leukemia (intraperitoneal) in CD2F1 (CDF1) mice. As to conditions: T/C endpoint: median survival time, higher T/C = longer survival.
Where [1] appears, read: dose: 60.0 mg/kg/injection, schedule: Q01DX001 (ip), vehicle: alkali diluted with saline.

The list does not hold the whole screen: it gathers tests that were run many times, whatever their T/C, doses with no T/C, and many T/C values between a quarter and a half above the control. Other doses and runs of a compound stand elsewhere. T/C: endpoint of the treated group in % of that of the vehicle group. Some doses have a count of surviving animals in place of a T/C: the source files T/C as zero there, which appears to mark a toxic dose or a test without result, not a measured value. Some survivor counts are full or nearly so, which does not show that the dose was tolerated: survival well below the control is almost never listed, so the zero probably covers shortened survival too. Survivors were counted at the toxicity check, usually on the fifth day, unless a day is given; later deaths do not show. Schedules are NCI's codes, taken here to give the interval after Q, in days (D) or hours (H), and the number of doses after X. Some doses were run more than once; the results are listed from low to high. For survival time, the PubChem record calls one and a half times the control and up active, and a quarter to a half above the control has no call in these data; cut-offs in other NCI protocols can differ. Some T/C values are followed by the survivors on the day toxicity was checked, most often the fifth; where none is given, no animal had died by that day.

Four compounds from PubChem BioAssay AID330 (DTP/NCI, 2004) can be followed below.

Consider `Nc1nc(=S)c2[nH]cnc2[nH]1`, for which the T/C reads like this: (dose: 0.25 mg/kg/injection, schedule: Q01DX009 (ip), vehicle: alkali diluted with saline) 128 % of control; (dose: 0.38 mg/kg/injection, schedule: Q01DX009 (ip), vehicle: acid diluted with saline) 126 % of control; (dose: 0.38 mg/kg/injection, schedule: Q01DX009 (ip), vehicle: alkali diluted with saline) 127 % of control; (dose: 0.5 mg/kg/injection, schedule: Q01DX009 (ip), vehicle: acid diluted with saline) 126 % of control; (dose: 0.5 mg/kg/injection, schedule: Q01DX009 (ip), vehicle: alkali diluted with saline) 128 % of control; (dose: 0.52 mg/kg/injection, schedule: Q01DX009 (ip), vehicle: acid diluted with saline) 129 and 131 % of control. Moreover, the T/C (dose: 0.75 mg/kg/injection, schedule: Q01DX009 (ip), vehicle: acid diluted with saline) was 129 % of control; the T/C (dose: 0.76 mg/kg/injection, schedule: Q01DX009 (ip), vehicle: alkali diluted with saline) is 133 % of control; the T/C (dose: 0.86 mg/kg/injection, schedule: Q01DX009 (ip), vehicle: acid diluted with saline) was 134 [6 of 7 alive] and 140 % of control; the T/C (dose: 0.96 mg/kg/injection, schedule: Q01DX009 (ip), vehicle: alkali diluted with saline) is 136 % of control; the T/C (dose: 1.0 mg/kg/injection, schedule: Q01DX009 (ip), vehicle: acid diluted with saline) was 133 % of control; the T/C (dose: 1.0 mg/kg/injection, schedule: Q01DX009 (ip), vehicle: alkali diluted with saline, evaluated on day 30) was 126 and 145 % of control. For the same compound, the T/C is 130 and 141 % of control (dose: 1.0 mg/kg/injection, schedule: Q01DX009 (ip), vehicle: alkali diluted with saline, evaluated on day 45); 146 % of control (dose: 1.2 mg/kg/injection, schedule: Q01DX009 (ip), vehicle: alkali diluted with saline); 143 % of control (dose: 1.25 mg/kg/injection, schedule: Q01DX009 (ip), vehicle: alkali diluted with saline); 148 % of control (dose: 1.44 mg/kg/injection, schedule: Q01DX009 (ip), vehicle: acid diluted with saline); 135 and 135 % of control [5 of 6 alive] (dose: 1.5 mg/kg/injection, schedule: Q01DX005 (ip), vehicle: alkali diluted with saline); 138 and 143 % of control (dose: 1.5 mg/kg/injection, schedule: Q01DX009 (ip), vehicle: alkali diluted with saline). Also, the T/C is, setting by setting: (dose: 1.75 mg/kg/injection, schedule: Q01DX009 (ip), vehicle: alkali diluted with saline) 137 % of control; (dose: 2.0 mg/kg/injection, schedule: Q01DX009 (ip), vehicle: acid diluted with saline) 136 % of control; (dose: 2.0 mg/kg/injection, schedule: Q01DX009 (ip), vehicle: alkali diluted with saline, evaluated on day 30) 151 and 166 % of control; (dose: 2.0 mg/kg/injection, schedule: Q01DX009 (ip), vehicle: alkali diluted with saline, evaluated on day 45) 126 and 135 % of control; (dose: 2.9 mg/kg/injection, schedule: Q01DX009 (ip), vehicle: saline) 145 % of control; (dose: 3.0 mg/kg/injection, schedule: Q01DX005 (ip), vehicle: alkali diluted with saline, evaluated on day 5) 132 % of control. The T/C is, setting by setting: (dose: 3.0 mg/kg/injection, schedule: Q01DX005 (ip), vehicle: alkali diluted with saline, evaluated on day 45) 142 and 148 % of control; (dose: 3.0 mg/kg/injection, schedule: Q01DX009 (ip), vehicle: acid diluted with saline) 134 % of control; (dose: 4.0 mg/kg/injection, schedule: Q01DX005 (ip), vehicle: alkali diluted with saline) 138 % of control; (dose: 4.0 mg/kg/injection, schedule: Q01DX009 (ip), vehicle: acid diluted with saline, evaluated on day 5) 128 and 170 % of control; (dose: 4.0 mg/kg/injection, schedule: Q01DX009 (ip), vehicle: acid diluted with saline, evaluated on day 30) 104 and 140 % of control; (dose: 4.0 mg/kg/injection, schedule: Q01DX009 (ip), vehicle: alkali diluted with saline) 135 and 140 % of control. In addition, the T/C is 137 % of control (dose: 4.0 mg/kg/injection, schedule: Q04DX003 (ip), vehicle: alkali diluted with saline); 127 % of control (dose: 5.4 mg/kg/injection, schedule: Q04DX003 (ip), vehicle: acid diluted with saline); 137 % of control (dose: 6.0 mg/kg/injection, schedule: Q01DX005 (ip), vehicle: alkali diluted with saline, evaluated on day 5); 140 % of control (dose: 6.0 mg/kg/injection, schedule: Q01DX005 (ip), vehicle: alkali diluted with saline, evaluated on day 45); 127 % of control (dose: 6.75 mg/kg/injection, schedule: Q01DX009 (ip), vehicle: saline); 147 % of control (dose: 8.0 mg/kg/injection, schedule: Q01DX005 (ip), vehicle: alkali diluted with saline). Moreover, the T/C was 136 % of control (dose: 8.0 mg/kg/injection, schedule: Q04DX003 (ip), vehicle: alkali diluted with saline); 139 % of control (dose: 9.0 mg/kg/injection, schedule: Q04DX003 (ip), vehicle: acid diluted with saline, evaluated on day 5); 144 % of control (dose: 9.0 mg/kg/injection, schedule: Q04DX003 (ip), vehicle: acid diluted with saline, evaluated on day 30); 135 % of control (dose: 10.0 mg/kg/injection, schedule: Q04DX003 (ip), vehicle: alkali diluted with saline); 131 % of control (dose: 12.0 mg/kg/injection, schedule: Q01DX005 (ip), vehicle: alkali diluted with saline, evaluated on day 5); 140 % of control (dose: 12.0 mg/kg/injection, schedule: Q01DX005 (ip), vehicle: alkali diluted with saline, evaluated on day 45). The T/C (dose: 15.0 mg/kg/injection, schedule: Q04DX003 (ip), vehicle: acid diluted with saline) was 143 % of control; the T/C (dose: 16.0 mg/kg/injection, schedule: Q04DX003 (ip), vehicle: alkali diluted with saline) is 134 % of control; the T/C (dose: 18.0 mg/kg/injection, schedule: Q04DX003 (ip), vehicle: acid diluted with saline) was 136 % of control; the T/C (dose: 25.0 mg/kg/injection, schedule: Q04DX003 (ip), vehicle: acid diluted with saline) was 134 % of control; the T/C (dose: 30.0 mg/kg/injection, schedule: Q01DX001 (ip), vehicle: alkali diluted with saline, evaluated on day 5) is 125 and 128 % of control; the T/C (dose: 30.0 mg/kg/injection, schedule: Q01DX001 (ip), vehicle: alkali diluted with saline, evaluated on day 45) was 131 [9 of 10 alive] and 136 % of control. Also, the T/C by setting is: (dose: 32.0 mg/kg/injection, schedule: Q04DX003 (ip), vehicle: alkali diluted with saline) 140 % of control; (dose: 40.0 mg/kg/injection, schedule: Q01DX001 (ip), vehicle: alkali diluted with saline, evaluated on day 5) 118 [8 of 9 alive] and 140 % of control; (dose: 40.0 mg/kg/injection, schedule: Q01DX001 (ip), vehicle: alkali diluted with saline, evaluated on day 45) 138 and 141 % of control; (dose: 40.0 mg/kg/injection, schedule: Q04DX003 (ip), vehicle: alkali diluted with saline) 128 % of control [6 of 8 alive]; (dose: 50.0 mg/kg/injection, schedule: Q01DX001 (ip), vehicle: alkali diluted with saline, evaluated on day 5) 128 [8 of 9 alive] and 145 % of control; (dose: 50.0 mg/kg/injection, schedule: Q01DX001 (ip), vehicle: alkali diluted with saline, evaluated on day 45) 139 [7 of 10 alive] and 144 % of control. Besides, the T/C is 132 % of control [6 of 8 alive] under setting [1] and 142 % of control [9 of 10 alive] (dose: 70.0 mg/kg/injection, schedule: Q01DX001 (ip), vehicle: alkali diluted with saline). Further, the survivor count under setting [1] is 2 of 4 and 6 of 10.
`Cc1c(O)c2ccccc2c2c1sc(NCCO)[n+]2C`: the survivor count (dose: 120.0 mg/kg/injection, schedule: Q01DX005 (ip), vehicle: saline with Tween-80) was 3 of 6 and the survivor count (dose: 240.0 mg/kg/injection, schedule: Q01DX005 (ip), vehicle: saline with Tween-80) is 0 of 6.
Consider `O=NNc1ncc(Sc2ccccc2)nc1Sc1ccccc1`, for which the survivor count (dose: 3.12 mg/kg/injection, schedule: Q01DX009 (ip), vehicle: water) is listed as 6 of 6. The T/C (dose: 50.0 mg/kg/injection, schedule: Q01DX009 (ip), vehicle: water) is 125 and 140 % of control.
Turning to `COc1cc2cc3cc(-c4ccc(Cl)cc4)c(N4CCOCC4)nc3nc2cc1OC`, the survivor count (dose: 60.0 mg/kg/injection, schedule: Q01DX005 (ip), vehicle: saline with Tween-80) is 4 of 6 and 6 of 6.
